The campaign covered roughly 330,000 compounds. About 7,700 (2.3%) were called active. Inconclusive results, whose numbers are uncertain, are shown with a selection of clear calls. Calls follow the shape of the dose curve; as a rule, active = well fitted inhibition curve with a large enough effect; inconclusive = small, poorly fitted or top-dose-only effect, or effect the other way; inactive = flat fitted curve, though single readings scatter. A potency beside an inconclusive call is a rough fit, not a confirmed value.
test: qHTS screen for small molecules that inhibit ELG1-dependent DNA repair in human embryonic kidney (HEK293T) cells expressing luciferase-tagged ELG1; conditions: HEK293T ELG1-luciferase reporter, luminescence, 16 h, DNA damage induced by 5-fluorouridine; activity change, negative = inhibition: at 46.1 µM (top of the series); also: nearly all actives have a fitted effect of over 55% in size
Procedure, shortened: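 DMSO vehicle served as the neutral condition. Each well held 2,000 cells given 5-fluorouridine plus compound; after 16 hr at 37 °C/5% CO2, ONE-Glo was added and luciferase measured 30 min later.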
% is scaled to controls: 0 for no effect and ±100 for the full control effect; potency is read from the fitted curve at half-maximal effect.

| Structure (SMILES) | Potency | activity change, negative = inhibition |
| --- | --- | --- |
| Cc1nnc(NC(=O)c2oc3ccccc3c2C)s1 | inconclusive: 16.4 µM [activator, partial curve] | – |
| O=C(CSc1ccc(Cl)cc1)NCC1CCCO1 (centres undefined) | inconclusive: 23.1 µM [activator, partial curve, poor fit] | – |
| CCCOc1ccc(N2C(=O)CC(N(Cc3ccc(OC)cc3)C(=S)Nc3ccccc3)C2=O)cc1 (centres undefined) | inconclusive: 20.6 µM [inhibitor, partial curve, poor fit] | – |
| Cn1cc([N+](=O)[O-])c(C(=O)Nc2nc(-c3ccc(Cl)cc3)cs2)n1 | active: 2.06 µM | – |
| Cc1cc(C(=O)N/N=C/c2ccc(O)c([N+](=O)[O-])c2)c(C)n1-c1ccc(F)cc1 | inconclusive: 14.6 µM [activator, partial curve] | – |
| CCOC(=O)CCC(=O)Nc1ncnc2c1C(c1ccccc1)c1c(ccc3ccccc13)O2 (centres undefined) | inconclusive: 25.9 µM [inhibitor, single point] | – |
| COc1ccccc1-c1csc(NC(=O)c2cc(-c3cccs3)nc3ccccc23)n1 | – | inactive: -17.8% |
| CCOC(=O)C1(C(F)(F)F)N=C(c2ccccc2F)OC(N(C)C)=N1 (centres undefined) | inconclusive: 0.58 µM [inhibitor, single point] | – |
| COc1ccc(CCC(=O)N2CCN(c3ccc([N+](=O)[O-])cc3)CC2)cc1OC | inconclusive: 13 µM [inhibitor, partial curve] | – |
| CCOC(=O)c1ccccc1NC(=O)COC(=O)c1ccccc1C(=O)N(C)c1ccccc1 | inconclusive: 6.51 µM [inhibitor, partial curve, poor fit] | – |
| O=C(NNC(=O)c1ccccc1Cl)c1ccc(-n2cncn2)c([N+](=O)[O-])c1 | – | inactive: -2.29% |
| Cc1ccc(C(=O)Nc2nnc(S(=O)(=O)N3CCOCC3)s2)cc1 | inconclusive: 20.6 µM [activator, partial curve, poor fit] | – |
| CCOc1ccc(CN2CCN(C(=O)c3cccc(F)c3)CC2)cc1 | inconclusive: 11.6 µM [inhibitor, partial curve] | – |
| Cc1cc(C)c(C)c(S(=O)(=O)Nc2ccc(O)cc2)c1C | inconclusive: 25.9 µM [inhibitor, single point] | – |
| CCc1c(C#N)c(SCCC(=O)Nc2ccc(OC)cc2)nc2c1C(=O)CC(C)(C)C2 | inconclusive: 29.1 µM [inhibitor, single point] | – |
| CN1CCN(C(=O)/C(=C/c2ccccc2Cl)NC(=O)c2ccccc2)CC1 | – | inactive: 2.43% |
| O=C(CCNS(=O)(=O)c1cccc2nonc12)N1CCN(c2cccc(Cl)c2)CC1 | inconclusive: 20.6 µM [inhibitor, single point] | – |
| O=C(Nc1cccc(C(=O)Nc2ccc(Br)cc2)c1)c1ccccc1 | inconclusive: 9.2 µM [activator, partial curve] | – |
| Cc1nc(C(=O)NC2CC2)sc1C1(C)CC(c2cccc([N+](=O)[O-])c2)=NO1 (centres undefined) | – | inactive: -19.7% |
| O=C1N(Cc2cccc(Cl)c2)C[C@@H]2C[C@@H](c3cccc4cccnc34)N3CCC[C@@]123 | – | inactive: 14.5% |
| Cc1cccc(-c2oc3ccc(-c4ccc5c(c4)OCO5)cc3c2/C=C/c2ccc(N)cc2)c1 | – | inactive: 8.93% |
| O=[N+]([O-])c1ccc(O)c(/C=N/Nc2ncnc3c2cnn3-c2ccccc2)c1 | inconclusive: 1.64 µM [inhibitor, partial curve] | – |
| Cc1ccc(C(=O)C2CCN(C(=S)NCC3CCCO3)CC2)cc1 (centres undefined) | inconclusive: 20.6 µM [inhibitor, partial curve] | – |

Reprinted at random: 2 records from the list.

| Structure (SMILES) | Potency | activity change, negative = inhibition |
| --- | --- | --- |
| CCc1c(C#N)c(SCCC(=O)Nc2ccc(OC)cc2)nc2c1C(=O)CC(C)(C)C2 | inconclusive: 29.1 µM [inhibitor, single point] | – |
| O=C(NNC(=O)c1ccccc1Cl)c1ccc(-n2cncn2)c([N+](=O)[O-])c1 | – | inactive: -2.29% |

More compounds.

| Structure (SMILES) | Potency | activity change, negative = inhibition |
| --- | --- | --- |
| Cc1ccc(C)c(N2CCN(C(=O)C3CCC3)CC2)c1 | – | inactive: -14% |
| O=C(Nc1ccc(Nc2ccccc2)cc1)c1ccccc1F | inconclusive: 2.59 µM [activator, single point] | – |
| Nn1c(C2COc3ccccc3O2)n[nH]c1=S (centres undefined) | inconclusive: 1.83 µM [inhibitor, partial curve, poor fit] | – |
| CCOC(=O)c1c(NC(=O)CSc2c[nH]c3ccccc23)sc2c1CCCC2 | inconclusive: 29.1 µM [activator, single point] | – |
| CN(c1ccc(C(=O)NC2CCCC2)cc1)S(=O)(=O)c1ccccc1 | inconclusive: 25.9 µM [inhibitor, partial curve, poor fit] | – |
| C=CCN=c1scc(-c2ccco2)n1/N=C/c1ccc(O)c(O)c1O | inconclusive: 2.59 µM [activator, full curve] | – |
| CCCCn1c(N)c(N(CCOC)C(=O)c2cc(-c3ccc(F)cc3)nc3ccccc23)c(=O)[nH]c1=O | – | inconclusive: 60.1% [activator] |
| OCCSc1nc(-c2cccnc2)nc2ccccc12 | inconclusive: 22.4 µM [inhibitor, single point] | – |
| CCOc1ccc(NC(=O)CN2CCCC2c2cccs2)cc1S(=O)(=O)N1CCCCC1 (centres undefined) | active: 14.6 µM | – |
| O=C(c1ccc(Cl)c(S(=O)(=O)NCc2ccccc2)c1)N1CCN(c2ccccn2)CC1 | active: 23.1 µM | – |
| O=C(c1cc(COc2c(F)cccc2F)on1)N1CCCCCC1 | inconclusive: 18.3 µM [activator, partial curve] | – |
| CCn1cnc2c(oc3ccccc32)c1=O | inconclusive: 14.6 µM [activator, partial curve, poor fit] | – |
| COc1ccc(-c2c(C)nn3c(C)cc(C)nc23)cc1 | – | inactive: -17.3% |
| CC(OC(=O)C1CC1)C(=O)Nc1ncc(Cl)cc1Cl (centres undefined) | inconclusive: 16.4 µM [activator, partial curve, poor fit] | – |
| Cc1cccc2cc(CN(Cc3nnnn3Cc3ccco3)C3CCCC3)c3nnnn3c12 | active: 20.6 µM | – |
| O=C(CSc1ccc(Cl)cc1)Nn1cnnc1 | – | inactive: 2.54% |
| COc1ccccc1-c1nnc(N)s1 | inconclusive: 18.3 µM [activator, partial curve, poor fit] | – |
| Cc1cc(C(=O)N/N=C/c2ccc([N+](=O)[O-])s2)c2ccccc2n1 | active: 20.6 µM | – |
| Cc1ccc(C(=O)OCC(=O)NCc2ccccc2)cc1S(=O)(=O)N1CCCCC1 | – | inactive: -21.5% |
| COc1cc2c(cc1OC)C1=C(C#N)CN(C3CCCCC3)CN1CC2 | inconclusive: 20.6 µM [inhibitor, single point] | – |
| COc1cc(C(=O)Nc2cccc(NC(=O)c3cccs3)c2)cc(OC)c1OC | active: 8.2 µM | – |
| CCc1ccc2c(c1)c1nnc(NN)nc1n2CC | active: 16.4 µM | – |
| COCCn1c(C)cc(C(=O)CSc2ccc(NC(C)=O)cc2)c1C | inconclusive: 5.17 µM [activator, partial curve] | – |

| Structure (SMILES) | Potency | activity change, negative = inhibition |
| --- | --- | --- |
| CCc1c(C)nc2cc(-c3cccc(Br)c3)[nH]n2c1=O | inconclusive: 4.11 µM [activator, full curve] | – |
| O=C(Nc1ccccc1)Nc1ccccc1Br | inconclusive: 8.2 µM [activator, partial curve] | – |
| CN(C)S(=O)(=O)c1ccc(S(=O)(=O)N2CCCC(C(=O)NC3CCCC3)C2)cc1 (centres undefined) | – | inactive: -8.04% |
| O=C(CCCN1CC=C(n2c(=O)[nH]c3ccccc32)CC1)c1ccc(F)cc1 | inconclusive: 29.1 µM [inhibitor, single point] | – |
| COc1cccc(C(=O)Nc2cccc(OCC(=O)c3ccccc3)c2)c1 | inconclusive: 20.6 µM [inhibitor, single point] | – |
| CCN(Cc1ccccc1)C(c1ccc(C)cc1)c1nnnn1C(C)(C)C (centres undefined) | inconclusive: 23.1 µM [inhibitor, partial curve, poor fit] | – |
| CC1S/C(=N/N=C/c2cccc([N+](=O)[O-])c2)NC1=O (centres undefined) | inconclusive: 25.9 µM [inhibitor, single point] | – |
| CCCCCc1ccc(OCCCC[n+]2ccc(C)cc2)c(CCCCC)c1 | active: 14.6 µM | – |
| CSc1nc(N2CCN(C)CC2)c2c(c1C#N)CC(C)(C)OC2 | active: 8.2 µM | – |
| COc1ccccc1Nc1nc(-c2cccnc2)cs1 | inconclusive: 18.3 µM [activator, single point] | – |
| Cc1noc(C)c1-c1nnc(-c2ccc(C(F)(F)F)cc2)o1 | inconclusive: 20.6 µM [activator, single point] | – |
| COc1ccc2oc(C(=O)OC(C)C(=O)NC3(C#N)CCCCC3)c(C)c2c1 (centres undefined) | – | inactive: -9.65% |
| COc1cc2oc(-c3ccc(O)cc3)cc(=O)c2c(OC)c1O | inconclusive: 16.4 µM [activator, single point] | – |
| O=C(NCCN1CCOCC1)c1cc(Cl)ccc1[N+](=O)[O-] | inconclusive: 29.1 µM [activator, partial curve, poor fit] | – |
| COc1cc(CNc2ccc3c(c2)CCC3)cc(OC)c1O | inconclusive: 29.1 µM [activator, single point] | – |
| Cc1oc(-c2ccc3c(c2)OCCO3)cc1C(=O)NCC(=O)O | inconclusive: 16.4 µM [inhibitor, single point] | – |
| CC(/C=N/N1CCN(c2ccccc2)CC1)=C\c1ccco1 | inconclusive: 10.3 µM [activator, partial curve] | – |
| Cc1cc(C(=O)COC(=O)c2ccc[nH]c2=O)c(C)n1-c1ccccc1F | inconclusive: 0.517 µM [activator, full curve] | – |
| COc1cc(OC)cc(C(=O)N2CCC3(CC2)NCCc2[nH]cnc23)c1 | – | inactive: 15.6% |
| Cn1nccc1C(=O)N1CCc2c([nH]c3ccccc23)C1c1ccc(F)cc1 (centres undefined) | inconclusive: 16.4 µM [inhibitor, single point] | – |
| Cc1ccc(S(=O)(=O)CCC(=O)Nc2nc3c(s2)CCCC3)cc1 | – | inactive: -11.3% |
| Clc1ccc(CO/N=C2\CCCc3nonc32)cc1 | inconclusive: 20.6 µM [activator, single point] | – |
| Cc1onc(-c2ccccc2Cl)c1C(=O)OCC(=O)c1c(N)n(C)c(=O)n(C)c1=O | inconclusive: 23.1 µM [inhibitor, single point] | – |

2 of these compounds in a different format:
Structure (SMILES)	Potency	activity change, negative = inhibition
Cc1ccc(C)c(N2CCN(C(=O)C3CCC3)CC2)c1	–	inactive: -14%
CCn1cnc2c(oc3ccccc32)c1=O	inconclusive: 14.6 µM [activator, partial curve, poor fit]	–

Reference: PubChem BioAssay AID504467 (National Center for Advancing Translational Sciences (NCATS), 2011)
